Measurements from the supplement of paper PMC10032668.
This is one part of the list. The list holds hits alone, and they repeat only in part.

Amino acid sequences for entries named in this document (tags omitted).
CALR, P27797, UniProt P27797, whole entry: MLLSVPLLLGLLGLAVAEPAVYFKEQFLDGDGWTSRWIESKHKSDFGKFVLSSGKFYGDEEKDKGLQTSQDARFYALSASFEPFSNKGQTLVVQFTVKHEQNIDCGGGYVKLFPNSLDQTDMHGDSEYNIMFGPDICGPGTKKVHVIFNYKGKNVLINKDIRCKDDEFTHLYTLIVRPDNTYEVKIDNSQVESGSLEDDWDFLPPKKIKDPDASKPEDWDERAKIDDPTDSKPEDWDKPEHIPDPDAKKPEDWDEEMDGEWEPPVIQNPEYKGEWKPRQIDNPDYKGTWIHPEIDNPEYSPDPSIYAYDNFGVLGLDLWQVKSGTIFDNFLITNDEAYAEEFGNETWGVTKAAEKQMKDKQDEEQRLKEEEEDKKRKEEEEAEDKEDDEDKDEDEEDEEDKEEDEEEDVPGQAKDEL
CAMP, P49913, UniProt P49913, whole entry: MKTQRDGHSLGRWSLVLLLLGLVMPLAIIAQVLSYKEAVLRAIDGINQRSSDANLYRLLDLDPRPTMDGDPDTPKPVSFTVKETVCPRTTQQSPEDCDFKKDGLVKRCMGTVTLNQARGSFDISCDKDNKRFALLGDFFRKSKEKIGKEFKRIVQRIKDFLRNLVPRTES
TPX2, Q9ULW0, UniProt Q9ULW0, whole entry: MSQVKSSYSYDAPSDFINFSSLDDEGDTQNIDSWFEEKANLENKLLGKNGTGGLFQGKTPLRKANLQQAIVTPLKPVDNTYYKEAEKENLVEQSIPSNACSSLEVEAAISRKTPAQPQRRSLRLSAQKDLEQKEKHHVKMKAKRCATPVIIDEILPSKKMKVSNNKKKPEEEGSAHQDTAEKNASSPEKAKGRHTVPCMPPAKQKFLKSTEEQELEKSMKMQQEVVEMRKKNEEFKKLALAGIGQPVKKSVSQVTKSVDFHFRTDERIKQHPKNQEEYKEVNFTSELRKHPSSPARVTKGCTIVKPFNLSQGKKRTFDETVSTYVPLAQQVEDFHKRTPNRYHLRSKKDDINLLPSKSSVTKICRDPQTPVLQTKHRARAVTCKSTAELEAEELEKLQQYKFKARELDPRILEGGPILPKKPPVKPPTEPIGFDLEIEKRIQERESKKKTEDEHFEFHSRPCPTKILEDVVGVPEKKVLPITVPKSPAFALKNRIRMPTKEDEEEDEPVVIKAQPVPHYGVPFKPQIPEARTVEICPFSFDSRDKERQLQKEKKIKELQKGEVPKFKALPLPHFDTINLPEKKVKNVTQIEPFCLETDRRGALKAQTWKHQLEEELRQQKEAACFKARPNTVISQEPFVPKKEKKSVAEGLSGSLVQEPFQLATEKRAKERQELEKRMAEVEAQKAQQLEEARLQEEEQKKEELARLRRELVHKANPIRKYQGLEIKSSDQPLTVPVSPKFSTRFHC
MORF4L2, Q15014, UniProt Q15014, whole entry: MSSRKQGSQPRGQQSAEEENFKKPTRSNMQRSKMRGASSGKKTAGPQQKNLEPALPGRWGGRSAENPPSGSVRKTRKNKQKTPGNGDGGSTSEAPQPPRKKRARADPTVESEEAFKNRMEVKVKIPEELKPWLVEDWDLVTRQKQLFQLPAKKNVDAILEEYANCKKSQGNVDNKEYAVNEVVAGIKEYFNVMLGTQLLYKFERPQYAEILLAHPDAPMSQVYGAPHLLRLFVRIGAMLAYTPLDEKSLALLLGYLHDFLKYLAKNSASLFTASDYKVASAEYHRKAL

Assays:
Assay in all cases: PRISMA enrichment of interactor (LFQ) in peptide spot vs all other peptide spots (log2 fold change); higher = stronger / more specific binding of the interactor to the peptide
CALR, P27797 = target: CALR, P27797
Protocol: (§1)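 PRISMA: 15-aa overlapping tiles (offset 8 aa) of 60 microproteins, plus SOS1/GLUT1 control peptides, were spot-synthesized on cellulose membranes in triplicate. Membranes were incubated with benzonase-treated HEK293T lysate, and bound proteins were identified by LC-MS/MS with LFQ. Enrichment is the log2 fold change of each protein in one spot versus all other spots. Only interactors passing the significance cutoff are listed.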

CAMP, P49913 = target: CAMP, P49913
Protocol: as §1

CHD4, Q14839 = target: CHD4, Q14839
Protocol: as §1

FABP5, Q01469 = target: FABP5, Q01469
Protocol: as §1

FANCD2, Q9BXW9 = target: FANCD2, Q9BXW9
Protocol: as §1

GPAT4, Q86UL3 = target: GPAT4, Q86UL3
Protocol: as §1

GTF3C1, Q12789 = target: GTF3C1, Q12789
Protocol: as §1

HOMER1, Q86YM7 = target: HOMER1, Q86YM7
Protocol: as §1

KIF2A, O00139 = target: KIF2A, O00139
Protocol: as §1

PTDSS1, P48651 = target: PTDSS1, P48651
Protocol: as §1

RPS19BP1, Q86WX3 = target: RPS19BP1, Q86WX3
Protocol: as §1

SETD7, Q8WTS6 = target: SETD7, Q8WTS6
Protocol: as §1

SNX27, Q96L92 = target: SNX27, Q96L92
Protocol: as §1

SRSF7, Q16629 = target: SRSF7, Q16629
Protocol: as §1

TPX2, Q9ULW0 = target: TPX2, Q9ULW0
Protocol: as §1

TRA2B, P62995 = target: TRA2B, P62995
Protocol: as §1

YIPF5, Q969M3 = target: YIPF5, Q969M3
Protocol: as §1

C19orf53, Q9UNZ5 = target: C19orf53, Q9UNZ5
Protocol: as §1

CHMP2A, O43633 = target: CHMP2A, O43633
Protocol: as §1

MUC19, Q7Z5P9 = target: MUC19, Q7Z5P9
Protocol: as §1

SCP2, P22307 = target: SCP2, P22307
Protocol: as §1

C1QBP, Q07021 = target: C1QBP, Q07021
Protocol: as §1

CCDC88A, Q3V6T2 = target: CCDC88A, Q3V6T2
Protocol: as §1

RPS29, P62273 = target: RPS29, P62273
Protocol: as §1

FKBP2, P26885 = target: FKBP2, P26885
Protocol: as §1

MRPL27, Q9P0M9 = target: MRPL27, Q9P0M9
Protocol: as §1

NAF1, Q96HR8 = target: NAF1, Q96HR8
Protocol: as §1

BZW1, Q7L1Q6 = target: BZW1, Q7L1Q6
Protocol: as §1

C11orf98, E9PRG8 = target: C11orf98, E9PRG8
Protocol: as §1

CHTOP, Q9Y3Y2 = target: CHTOP, Q9Y3Y2
Protocol: as §1

CLTA, P09496 = target: CLTA, P09496
Protocol: as §1

CLTB, P09497 = target: CLTB, P09497
Protocol: as §1

CLTC, Q00610 = target: CLTC, Q00610
Protocol: as §1

CLTCL1, P53675 = target: CLTCL1, P53675
Protocol: as §1

CSNK1A1, P48729 = target: CSNK1A1, P48729
Protocol: as §1

CXorf56, Q9H5V9 = target: CXorf56, Q9H5V9
Protocol: as §1

DECR1, Q16698 = target: DECR1, Q16698
Protocol: as §1

EMG1, Q92979 = target: EMG1, Q92979
Protocol: as §1

EXOSC4, Q9NPD3 = target: EXOSC4, Q9NPD3
Protocol: as §1

FAM83D, Q9H4H8 = target: FAM83D, Q9H4H8
Protocol: as §1

FOCAD, Q5VW36 = target: FOCAD, Q5VW36
Protocol: as §1

GABARAPL2, P60520 = target: GABARAPL2, P60520
Protocol: as §1

MAGEB2, O15479 = target: MAGEB2, O15479
Protocol: as §1

MORF4L2, Q15014 = target: MORF4L2, Q15014
Protocol: as §1

MRPL34, Q9BQ48 = target: MRPL34, Q9BQ48
Protocol: as §1

NCAPH, Q15003 = target: NCAPH, Q15003
Protocol: as §1

NOL9, Q5SY16 = target: NOL9, Q5SY16
Protocol: as §1

PLS3, P13797 = target: PLS3, P13797
Protocol: as §1

PYCR1, P32322 = target: PYCR1, P32322
Protocol: as §1

PYCR2, Q96C36 = target: PYCR2, Q96C36
Protocol: as §1

TFB2M, Q9H5Q4 = target: TFB2M, Q9H5Q4
Protocol: as §1

URB1, O60287 = target: URB1, O60287
Protocol: as §1

CAD, P27708 = target: CAD, P27708
Protocol: as §1

GPD1L, Q8N335 = target: GPD1L, Q8N335
Protocol: as §1

GTF2F2, P13984 = target: GTF2F2, P13984
Protocol: as §1

HDAC1, Q13547 = target: HDAC1, Q13547
Protocol: as §1

KIF22, Q14807 = target: KIF22, Q14807
Protocol: as §1

[1] = substrate: NSF, P46459
Protocol: as §1

SH3GL1, Q99961 = target: SH3GL1, Q99961
Protocol: as §1

UQCRFS1, P47985 = target: UQCRFS1, P47985
Protocol: as §1

WDR43, Q15061 = target: WDR43, Q15061
Protocol: as §1

DDX49, Q9Y6V7 = target: DDX49, Q9Y6V7
Protocol: as §1

EIF3K, Q9UBQ5 = target: EIF3K, Q9UBQ5
Protocol: as §1

FAM91A1, Q658Y4 = target: FAM91A1, Q658Y4
Protocol: as §1

PDCD11, Q14690 = target: PDCD11, Q14690
Protocol: as §1

RANGAP1, P46060 = target: RANGAP1, P46060
Protocol: as §1

CALD1, Q05682 = target: CALD1, Q05682
Protocol: as §1

HIST2H2BE, Q16778 = target: HIST2H2BE, Q16778
Protocol: as §1

ODF2, Q5BJF6 = target: ODF2, Q5BJF6
Protocol: as §1

UQCRQ, O14949 = target: UQCRQ, O14949
Protocol: as §1

GSSFSHKSRNATDYK [RP11-12K22.1]
PRISMA enrichment of interactor (log2) (CALR, P27797): 5.27 | PRISMA enrichment of interactor (log2) (CAMP, P49913): 4.94 | PRISMA enrichment of interactor (log2) (CHD4, Q14839): 6.41 | PRISMA enrichment of interactor (log2) (FABP5, Q01469): 4.91 | PRISMA enrichment of interactor (log2) (FANCD2, Q9BXW9): 4.8 | PRISMA enrichment of interactor (log2) (GPAT4, Q86UL3): 4.06 | PRISMA enrichment of interactor (log2) (GTF3C1, Q12789): 4.47 | PRISMA enrichment of interactor (log2) (HOMER1, Q86YM7): 5.55 | PRISMA enrichment of interactor (log2) (KIF2A, O00139): 5.89 | PRISMA enrichment of interactor (log2) (PTDSS1, P48651): 4.46 | PRISMA enrichment of interactor (log2) (RPS19BP1, Q86WX3): 4.7 | PRISMA enrichment of interactor (log2) (SETD7, Q8WTS6): 7.48 | PRISMA enrichment of interactor (log2) (SNX27, Q96L92): 5.49 | PRISMA enrichment of interactor (log2) (SRSF7, Q16629): 5.74 | PRISMA enrichment of interactor (log2) (TPX2, Q9ULW0): 5.19 | PRISMA enrichment of interactor (log2) (TRA2B, P62995): 5.69 | PRISMA enrichment of interactor (log2) (YIPF5, Q969M3): 4.97

PLSEPPSDFLTSSPD [NAV2-AS2_2]
PRISMA enrichment of interactor (log2) (C19orf53, Q9UNZ5): 6.52 | PRISMA enrichment of interactor (log2) (CHMP2A, O43633): 4.35 | PRISMA enrichment of interactor (log2) (MUC19, Q7Z5P9): 7.95 | PRISMA enrichment of interactor (log2) (SCP2, P22307): 5.44

MGPRAGRARGGRDEE [PVT1]
PRISMA enrichment of interactor (log2) (C1QBP, Q07021): 6.96 | PRISMA enrichment of interactor (log2) (CCDC88A, Q3V6T2): 5.87 | PRISMA enrichment of interactor (log2) (RPS29, P62273): 5.24

PRRFSTLLLAEDSPL [IFRD1]
PRISMA enrichment of interactor (log2) (C19orf53, Q9UNZ5): 6.68 | PRISMA enrichment of interactor (log2) (FKBP2, P26885): 4.16 | PRISMA enrichment of interactor (log2) (MRPL27, Q9P0M9): 8.5 | PRISMA enrichment of interactor (log2) (NAF1, Q96HR8): 4.79

TPEELFHLLGADSQ [GLUT1_MUT_2]
PRISMA enrichment of interactor (log2) (BZW1, Q7L1Q6): 5.14 | PRISMA enrichment of interactor (log2) (C11orf98, E9PRG8): 4.79 | PRISMA enrichment of interactor (log2) (C19orf53, Q9UNZ5): 6.78 | PRISMA enrichment of interactor (log2) (CHTOP, Q9Y3Y2): 6.3 | PRISMA enrichment of interactor (log2) (CLTA, P09496): 6.65 | PRISMA enrichment of interactor (log2) (CLTB, P09497): 5.84 | PRISMA enrichment of interactor (log2) (CLTC, Q00610): 5.04 | PRISMA enrichment of interactor (log2) (CLTCL1, P53675): 3.91 | PRISMA enrichment of interactor (log2) (CSNK1A1, P48729): 5.13 | PRISMA enrichment of interactor (log2) (CXorf56, Q9H5V9): 4.69 | PRISMA enrichment of interactor (log2) (DECR1, Q16698): 5.66 | PRISMA enrichment of interactor (log2) (EMG1, Q92979): 4.88 | PRISMA enrichment of interactor (log2) (EXOSC4, Q9NPD3): 5.17 | PRISMA enrichment of interactor (log2) (FAM83D, Q9H4H8): 4.44 | PRISMA enrichment of interactor (log2) (FOCAD, Q5VW36): 4.38 | PRISMA enrichment of interactor (log2) (GABARAPL2, P60520): 5.38 | PRISMA enrichment of interactor (log2) (MAGEB2, O15479): 5.28 | PRISMA enrichment of interactor (log2) (MORF4L2, Q15014): 5.04 | PRISMA enrichment of interactor (log2) (MRPL27, Q9P0M9): 7.86 | PRISMA enrichment of interactor (log2) (MRPL34, Q9BQ48): 4.37 | PRISMA enrichment of interactor (log2) (NCAPH, Q15003): 4.73 | PRISMA enrichment of interactor (log2) (NOL9, Q5SY16): 4.22 | PRISMA enrichment of interactor (log2) (PLS3, P13797): 4.9 | PRISMA enrichment of interactor (log2) (PYCR1, P32322): 5.67 | PRISMA enrichment of interactor (log2) (PYCR2, Q96C36): 5.21 | PRISMA enrichment of interactor (log2) (RPS19BP1, Q86WX3): 4.76 | PRISMA enrichment of interactor (log2) (TFB2M, Q9H5Q4): 6.24 | PRISMA enrichment of interactor (log2) (URB1, O60287): 5.92

MKNTSWIRKNWLLVA [MKKS_2]
PRISMA enrichment of interactor (log2) (CAD, P27708): 5.83 | PRISMA enrichment of interactor (log2) (CHD4, Q14839): 5.23 | PRISMA enrichment of interactor (log2) (EMG1, Q92979): 4.71 | PRISMA enrichment of interactor (log2) (GPD1L, Q8N335): 4.96 | PRISMA enrichment of interactor (log2) (GTF2F2, P13984): 6.74 | PRISMA enrichment of interactor (log2) (HDAC1, Q13547): 5.46 | PRISMA enrichment of interactor (log2) (KIF22, Q14807): 4.8 | PRISMA enrichment of interactor (log2) (NAF1, Q96HR8): 4.36 | PRISMA enrichment of interactor (log2) [1]: 4.62 | PRISMA enrichment of interactor (log2) (PYCR2, Q96C36): 4.6 | PRISMA enrichment of interactor (log2) (SH3GL1, Q99961): 4.5 | PRISMA enrichment of interactor (log2) (UQCRFS1, P47985): 7.76 | PRISMA enrichment of interactor (log2) (WDR43, Q15061): 4.04

TPEELFHPLGADSQ [GLUT1_WT_1]
PRISMA enrichment of interactor (log2) (C19orf53, Q9UNZ5): 6.99 | PRISMA enrichment of interactor (log2) (DDX49, Q9Y6V7): 5.75 | PRISMA enrichment of interactor (log2) (EIF3K, Q9UBQ5): 4.29 | PRISMA enrichment of interactor (log2) (FAM91A1, Q658Y4): 4.42 | PRISMA enrichment of interactor (log2) (MUC19, Q7Z5P9): 8.05 | PRISMA enrichment of interactor (log2) (PDCD11, Q14690): 7.44 | PRISMA enrichment of interactor (log2) (RANGAP1, P46060): 4.77 | PRISMA enrichment of interactor (log2) (SCP2, P22307): 5.26

RREFRKNQKLEDAEA [MIEF-MP]
PRISMA enrichment of interactor (log2) (C1QBP, Q07021): 7.99 | PRISMA enrichment of interactor (log2) (CALD1, Q05682): 9.52 | PRISMA enrichment of interactor (log2) (HIST2H2BE, Q16778): 5.55 | PRISMA enrichment of interactor (log2) (ODF2, Q5BJF6): 5.72 | PRISMA enrichment of interactor (log2) (UQCRQ, O14949): 6.45
